Data reported in PubChem BioAssay AID493014 (National Center for Advancing Translational Sciences (NCATS), 2011).
Some of the results follow. The main result of the screen is listed elsewhere. These columns were measured beside it and carry no call. Most of these compounds were active or inconclusive in the main read-out, so they are no random draw. The note in brackets gives the kind of curve behind each potency; many fits are weak.

Experiment: qHTS Assay to Find Inhibitors of Chronic Active B-Cell Receptor Signaling
Settings: ABC-DLBCL IkBa-CBG/CBR reporter, luminescence ratio (green luciferase fused to IkBa over red control in TMD8 lymphoma cells), 4 h
Procedure, shortened: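 TMD8 ABC-DLBCL cells carrying doxycycline-inducible green luciferase fused to IkappaBalpha plus unfused red luciferase were exposed to compounds (up to 46 uM) for 4 hrs at 37C. Activity came from the overlap-corrected green/red luminescence ratio.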

[1] = measured here: CBR red luminescence, cell number
[2] = measured here: IkBa-CBG green luminescence

Compound | AC50 [1] | AC50 [2]
CN(C)C(=O)NC1c2ccccc2-c2ccccc21 | 1.12 µM [rising, full curve, poor fit] | 
Cc1ccc2c(c1)C(=O)C(=O)N2CC(=O)Nc1ccccc1NC(=O)c1ccccn1 | 15.8 µM [rising, partial curve] | 22.4 µM [falling, single point]
CCN1CCN(c2nc(Nc3ccc(OC)cc3)nc(N)c2[N+](=O)[O-])CC1 | 0.355 µM [rising, full curve, poor fit] | 
CC1CN(C(=S)NC(=O)c2ccccc2)CC(C)O1 (centres undefined) | 7.94 µM [rising, partial curve, poor fit] | 
COc1ccccc1N1CCN(C(=O)c2cc3c(C)nc4ccccc4c3o2)CC1 | 5.01 µM [falling, partial curve, poor fit] | 
O=C(/C=C/c1cccnc1)c1cccc(O)c1 | 2.82 µM [falling, full curve, poor fit] | 
C=CCN1C(=Nc2ccccc2)SC/C1=C\C(=O)OC | 5.62 µM [rising, partial curve, poor fit] | 
FC(F)(F)c1nnc2c(Sc3ccccn3)nc3ccccc3n12 | 2.24 µM [falling, full curve] | 
Cc1ccc(S(=O)(=O)n2nc(OC(=O)c3c(-c4ccccc4Cl)noc3C)cc2N)cc1 | 14.1 µM [falling, partial curve, poor fit] | 
c1ccc(Nc2nc(NCC3CCCO3)c3ccccc3n2)cc1 (centres undefined) | 25.1 µM [falling, single point] | 
Cc1cccc(NC(=O)N2CCCC2C(=O)NCc2cccs2)c1 (centres undefined) | 3.26 µM [rising, single point] | 
COc1ccc(C(=O)O/N=C(\N)c2cccc(C)c2)cc1OC | 11.2 µM [falling, partial curve] | 
CCN(CC)CCNC(=O)c1cc2c(=O)n(CC)c3ccccc3c2s1 | 5.62 µM [falling, single point] | 
CCOC(=O)c1c(NC(=O)C(C)N2CCN(C(=O)c3ccco3)CC2)sc2c1CCCC2 (centres undefined) | 23.1 µM [falling, single point] | 
CC(NC(=O)NC(=O)c1ccc(Cl)cc1Cl)C1CC1 (centres undefined) | 17.8 µM [rising, single point] | 
CC(C)(C)C(=O)/C(=C/c1cccc([N+](=O)[O-])c1)n1cncn1 | 1.84 µM [falling, full curve] | 4.11 µM [rising, full curve, poor fit]
CCOC(=O)c1ccc(NC(=O)c2c(NCc3cc(OC)c(OC)cc3OC)sc3c2CCCC3)cc1 | 4.47 µM [rising, partial curve, poor fit] | 
CC1C/C(=C\c2cccnc2)C(=O)/C(=C/c2cccnc2)C1 (centres undefined) | 1.46 µM [falling, full curve] | 
COc1cccc(Cl)c1NC(=O)N1CCc2c([nH]c3ccccc23)C1C(F)(F)F (centres undefined) | 7.08 µM [falling, full curve] | 
CC(=O)Nc1cccc(OCC(=O)Nc2ccc(F)cc2)c1 | 9.2 µM [rising, single point] | 2.31 µM [falling, partial curve, poor fit]
Cc1ccc(S(=O)(=O)/C(C#N)=C/c2c(N3CCOCC3)nc3ccccn3c2=O)cc1 | 12.6 µM [falling, partial curve, poor fit] | 3.55 µM [rising, partial curve, poor fit]

Compound | AC50 [1] | AC50 [2]
COc1ccc(C(=O)COC(=O)CCc2nc3ccccc3[nH]c2=O)cc1Br | 25.1 µM [rising, single point] | 
O=C(Nc1ccc(S(=O)(=O)N2CCCCC2)cc1)c1ccc(Cl)nc1 | 5.17 µM [falling, partial curve, poor fit] | 
O=C(OCc1ccccc1)c1ccc(Br)o1 | 20.6 µM [rising, single point] | 
Cc1ccc(C)c(NC(=O)c2cc3ccccn3n2)c1 | 9.2 µM [falling, partial curve] | 
C=CCn1c(C)cc(C(=O)COC(=O)CNC(=O)c2ccccc2)c1C | 0.82 µM [rising, full curve] | 
O=C(Nc1ccc(Cl)cc1)C(Cl)C(=O)c1ccccc1 (centres undefined) | 15.8 µM [falling, single point] | 
COC(=O)CSc1ccc2nnc(CCNS(=O)(=O)c3ccccc3)n2n1 | 0.562 µM [rising, full curve, poor fit] | 
COC(=O)CN(n1cnnc1)S(=O)(=O)c1ccc(C)cc1 | 25.9 µM [rising, single point] | 18.4 µM [falling, partial curve, poor fit]
COc1ccc(CN2CCNC(=O)C2CC(=O)O)c(OC)c1 (centres undefined) | 29.1 µM [rising, single point] | 
Cc1ccccc1-c1ccccc1CN1[C@@H](C(C)C)COCCS1(=O)=O | 13 µM [falling, partial curve, poor fit] | 
Cc1sc2nc(-c3ccccn3)[nH]c(=O)c2c1-c1ccccc1 | 35.5 µM [falling, single point] | 12.6 µM [falling, partial curve, poor fit]
O=C(N=Nc1c(O)n(Cc2ccccc2)c2ccccc12)c1ccc(O)cc1 | 16.4 µM [falling, single point] | 
COc1cccc(Nc2nnc(SCC(=O)Nc3sccc3C(N)=O)s2)c1 | 11.2 µM [falling, partial curve, poor fit] | 
COc1ccc(C(=O)NCC(=O)N=Nc2c(O)n(Cc3ccccc3)c3ccccc23)cc1OC | 5.8 µM [falling, partial curve, poor fit] | 
CCCCn1c(-c2cccc3ccccc23)nc2cc3[nH]c(=O)c(C(C)C)nc3cc21 | 6.31 µM [falling, partial curve, poor fit] | 
O=C(O)c1ccc(S(=O)(=O)c2ccc([N+](=O)[O-])cc2[N+](=O)[O-])cc1 | 3.16 µM [rising, full curve, poor fit] | 17.8 µM [falling, single point]
CC1CCCCN1CCNC(=O)c1ccc2c(c1)N(Cc1ccccc1)C(=O)c1ccccc1S2(=O)=O (centres undefined) | 11.2 µM [falling, single point] | 
Cc1ccc(OCC(=O)N/N=C\c2cccs2)c([N+](=O)[O-])c1 | 13 µM [rising, partial curve, poor fit] | 
O=C(NCS(=O)(=O)c1ccccc1)c1ccccc1 | 12.6 µM [rising, partial curve, poor fit] | 
Cc1cccc(-n2ncc3c(NCc4cccs4)ncnc32)c1 | 35.5 µM [falling, single point] | 
COCCCN1C(=O)N(c2ccc(F)cc2)C(=O)C1CC(=O)Nc1ccc(OC)cc1 (centres undefined) | 3.98 µM [rising, full curve, poor fit] | 

Compound | AC50 [1] | AC50 [2]
O=C(NNC(=O)c1ccc(Cl)cc1Cl)c1cccs1 | 12.6 µM [falling, single point] | 
O=C(N/N=C/c1ccc[nH]1)c1sc2ccccc2c1Cl | 10 µM [falling, partial curve] | 
Cc1ccc(C(=O)n2nc(-n3cccc3)c3c(C)cc(C)nc32)cc1 | 15.8 µM [falling, partial curve, poor fit] | 
O=C(CNC(=O)c1ccc(F)cc1)c1ccc(Cl)cc1 | 7.08 µM [falling, partial curve, poor fit] | 
Cc1cc(C(=O)N/N=C(\CCC(=O)O)c2cccs2)c2ccccc2n1 |  | 25.1 µM [falling, partial curve, poor fit]
COc1cccc(COC(=O)Nc2ccccc2F)c1 | 10 µM [falling, partial curve] | 
Cc1nn2cnnc2c(C)c1Cc1ccc(Cl)cc1 | 2.24 µM [falling, single point] | 
Cc1cc(C)n(C(=O)c2ccc(C)c(S(=O)(=O)N3CCCC3)c2)n1 | 10.3 µM [rising, partial curve] | 
Cc1ccc(SCc2cc(=O)n3[nH]c(C)nc3n2)cc1 | 23.1 µM [falling, partial curve, poor fit] | 
Cc1ccccc1NC(=O)/C=C1\SC(=O)NC1=O | 35.5 µM [falling, single point] | 
Oc1ccc(N=Nc2n[nH]c(-c3ccccc3)n2)cc1 | 3.26 µM [falling, partial curve] | 
Cc1c(C(=O)Nc2ccccn2)oc2ccccc12 | 15.8 µM [falling, single point] | 
CCC(C)(C)C1CCC2(CC1)NC(=O)N(CC(=O)N(C)CC(=O)Nc1ccccc1C(F)(F)F)C2=O (centres undefined) | 5.01 µM [falling, partial curve] | 
Cc1ccc(-c2cc(=O)c3cc(C)ccc3[nH]2)cc1 | 16.4 µM [falling, single point] | 
CC1CCN(C(=O)c2cc(-c3ccc4c(c3)OCO4)on2)CC1 | 12.6 µM [falling, single point] | 
COc1cccc(Nc2ncnc3nc[nH]c23)c1 | 7.31 µM [falling, partial curve] | 
COc1ccc(CCNC(C(=O)Nc2cc(C)cc(C)c2)c2ccccc2)cc1 (centres undefined) | 11.2 µM [falling, partial curve] | 
CCOc1cccc(C(=O)NC(=S)Nc2ccc3c(c2)OCCO3)c1 | 11.2 µM [falling, partial curve, poor fit] | 15.8 µM [falling, partial curve, poor fit]
Cc1cc(C)n2nc(C(=O)N/N=C/c3cn(C)nc3C)nc2n1 | 35.5 µM [rising, single point] | 

By substructure: those above containing an aryl thioether with sulfur outside any ring
Compound | AC50 [1] | AC50 [2]
FC(F)(F)c1nnc2c(Sc3ccccn3)nc3ccccc3n12 | 2.24 µM [falling, full curve] | 
COC(=O)CSc1ccc2nnc(CCNS(=O)(=O)c3ccccc3)n2n1 | 0.562 µM [rising, full curve, poor fit] | 
COc1cccc(Nc2nnc(SCC(=O)Nc3sccc3C(N)=O)s2)c1 | 11.2 µM [falling, partial curve, poor fit] | 
Cc1ccc(SCc2cc(=O)n3[nH]c(C)nc3n2)cc1 | 23.1 µM [falling, partial curve, poor fit] | 

Quoted from the entries so far for reference:
Compound | AC50 [1] | AC50 [2]
COc1cccc(COC(=O)Nc2ccccc2F)c1 | 10 µM [falling, partial curve] | 
Cc1nn2cnnc2c(C)c1Cc1ccc(Cl)cc1 | 2.24 µM [falling, single point] | 
